Experimental data from the supplement of paper PMC12823440, “Inhibitors supercharge kinase turnover through native proteolytic circuits” (Nature, 2025).
Where a name gives a salt, the structure may show the parent alone. Some of the results follow. Hit calls seldom repeat between salt and free forms of one compound.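 Kinases, fused to nanoluciferase, were expressed in K562 cells; luminescence was measured every 4 h from 2 to 18 h as percent of control (DMSO = 100%, positive control = 0%). A time point is decreased if signal falls significantly (2 sigma). Hits were called by the authors by a rule that is not shown; the count of time points alone does not decide it.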

Sequences of proteins named here, by UniProt entry; tags and fusion partners are left off. A change or cut given only in a name is not applied to a line headed by its entry.
UniProt Q9UBF8: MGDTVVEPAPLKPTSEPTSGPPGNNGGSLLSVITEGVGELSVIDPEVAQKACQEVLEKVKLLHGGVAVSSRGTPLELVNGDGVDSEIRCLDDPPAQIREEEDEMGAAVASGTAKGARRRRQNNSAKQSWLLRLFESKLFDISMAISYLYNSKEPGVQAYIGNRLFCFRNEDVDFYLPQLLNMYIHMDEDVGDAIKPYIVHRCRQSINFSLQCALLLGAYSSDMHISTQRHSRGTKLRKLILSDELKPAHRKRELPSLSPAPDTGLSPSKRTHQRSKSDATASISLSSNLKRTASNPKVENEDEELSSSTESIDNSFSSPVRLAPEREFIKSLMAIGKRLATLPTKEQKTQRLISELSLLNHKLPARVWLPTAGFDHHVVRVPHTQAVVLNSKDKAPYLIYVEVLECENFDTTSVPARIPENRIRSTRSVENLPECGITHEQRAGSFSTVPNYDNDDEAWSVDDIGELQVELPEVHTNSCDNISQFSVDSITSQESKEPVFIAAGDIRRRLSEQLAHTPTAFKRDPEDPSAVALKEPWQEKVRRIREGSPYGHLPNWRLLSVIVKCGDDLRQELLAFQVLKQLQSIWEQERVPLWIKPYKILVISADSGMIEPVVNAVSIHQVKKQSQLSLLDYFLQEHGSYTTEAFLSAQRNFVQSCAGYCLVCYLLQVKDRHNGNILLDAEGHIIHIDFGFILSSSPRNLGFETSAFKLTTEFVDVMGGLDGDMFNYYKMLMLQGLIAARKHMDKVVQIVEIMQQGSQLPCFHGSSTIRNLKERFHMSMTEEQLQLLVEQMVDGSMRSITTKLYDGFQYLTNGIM
UniProt P53350, whole entry: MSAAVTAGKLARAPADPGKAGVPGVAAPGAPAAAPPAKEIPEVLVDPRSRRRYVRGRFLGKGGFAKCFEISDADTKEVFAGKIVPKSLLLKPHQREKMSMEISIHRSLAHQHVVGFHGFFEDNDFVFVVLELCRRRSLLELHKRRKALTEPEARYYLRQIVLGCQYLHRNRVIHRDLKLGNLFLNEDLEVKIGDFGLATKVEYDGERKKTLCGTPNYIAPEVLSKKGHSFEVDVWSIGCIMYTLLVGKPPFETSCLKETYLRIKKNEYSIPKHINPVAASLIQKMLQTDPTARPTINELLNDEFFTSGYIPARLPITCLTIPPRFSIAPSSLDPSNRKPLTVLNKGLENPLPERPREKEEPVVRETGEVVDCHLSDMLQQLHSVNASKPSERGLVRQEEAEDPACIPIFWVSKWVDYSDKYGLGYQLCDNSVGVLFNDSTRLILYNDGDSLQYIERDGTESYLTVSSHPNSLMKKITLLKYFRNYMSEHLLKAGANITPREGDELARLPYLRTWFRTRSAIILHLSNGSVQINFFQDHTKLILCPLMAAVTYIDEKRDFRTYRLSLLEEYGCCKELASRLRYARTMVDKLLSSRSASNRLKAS
UniProt Q14289, whole entry, looked up: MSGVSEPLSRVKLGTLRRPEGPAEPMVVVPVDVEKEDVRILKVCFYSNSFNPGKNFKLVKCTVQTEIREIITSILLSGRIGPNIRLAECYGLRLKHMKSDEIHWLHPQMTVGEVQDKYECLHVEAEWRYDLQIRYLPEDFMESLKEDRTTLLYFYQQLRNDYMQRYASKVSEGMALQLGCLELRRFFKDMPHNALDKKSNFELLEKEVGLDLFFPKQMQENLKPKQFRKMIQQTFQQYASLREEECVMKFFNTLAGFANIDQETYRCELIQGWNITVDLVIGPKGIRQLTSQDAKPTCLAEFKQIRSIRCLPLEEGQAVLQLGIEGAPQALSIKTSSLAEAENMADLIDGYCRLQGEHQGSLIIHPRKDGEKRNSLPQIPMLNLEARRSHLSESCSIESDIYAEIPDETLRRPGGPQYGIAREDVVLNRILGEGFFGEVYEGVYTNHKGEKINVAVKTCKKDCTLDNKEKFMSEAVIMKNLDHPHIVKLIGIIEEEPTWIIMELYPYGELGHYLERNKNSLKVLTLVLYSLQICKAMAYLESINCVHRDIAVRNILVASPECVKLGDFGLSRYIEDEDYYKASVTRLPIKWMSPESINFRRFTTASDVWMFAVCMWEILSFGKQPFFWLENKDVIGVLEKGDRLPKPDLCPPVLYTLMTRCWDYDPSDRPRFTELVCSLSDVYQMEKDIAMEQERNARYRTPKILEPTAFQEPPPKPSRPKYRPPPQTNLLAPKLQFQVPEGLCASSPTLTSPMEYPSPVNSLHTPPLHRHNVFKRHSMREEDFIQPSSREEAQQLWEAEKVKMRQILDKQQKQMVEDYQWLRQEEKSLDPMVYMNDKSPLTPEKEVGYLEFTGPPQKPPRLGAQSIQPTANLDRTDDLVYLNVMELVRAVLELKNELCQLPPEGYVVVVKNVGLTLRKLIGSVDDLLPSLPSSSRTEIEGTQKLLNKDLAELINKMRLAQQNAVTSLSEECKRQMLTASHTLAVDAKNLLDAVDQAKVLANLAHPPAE
UniProt P07949, whole entry, looked up: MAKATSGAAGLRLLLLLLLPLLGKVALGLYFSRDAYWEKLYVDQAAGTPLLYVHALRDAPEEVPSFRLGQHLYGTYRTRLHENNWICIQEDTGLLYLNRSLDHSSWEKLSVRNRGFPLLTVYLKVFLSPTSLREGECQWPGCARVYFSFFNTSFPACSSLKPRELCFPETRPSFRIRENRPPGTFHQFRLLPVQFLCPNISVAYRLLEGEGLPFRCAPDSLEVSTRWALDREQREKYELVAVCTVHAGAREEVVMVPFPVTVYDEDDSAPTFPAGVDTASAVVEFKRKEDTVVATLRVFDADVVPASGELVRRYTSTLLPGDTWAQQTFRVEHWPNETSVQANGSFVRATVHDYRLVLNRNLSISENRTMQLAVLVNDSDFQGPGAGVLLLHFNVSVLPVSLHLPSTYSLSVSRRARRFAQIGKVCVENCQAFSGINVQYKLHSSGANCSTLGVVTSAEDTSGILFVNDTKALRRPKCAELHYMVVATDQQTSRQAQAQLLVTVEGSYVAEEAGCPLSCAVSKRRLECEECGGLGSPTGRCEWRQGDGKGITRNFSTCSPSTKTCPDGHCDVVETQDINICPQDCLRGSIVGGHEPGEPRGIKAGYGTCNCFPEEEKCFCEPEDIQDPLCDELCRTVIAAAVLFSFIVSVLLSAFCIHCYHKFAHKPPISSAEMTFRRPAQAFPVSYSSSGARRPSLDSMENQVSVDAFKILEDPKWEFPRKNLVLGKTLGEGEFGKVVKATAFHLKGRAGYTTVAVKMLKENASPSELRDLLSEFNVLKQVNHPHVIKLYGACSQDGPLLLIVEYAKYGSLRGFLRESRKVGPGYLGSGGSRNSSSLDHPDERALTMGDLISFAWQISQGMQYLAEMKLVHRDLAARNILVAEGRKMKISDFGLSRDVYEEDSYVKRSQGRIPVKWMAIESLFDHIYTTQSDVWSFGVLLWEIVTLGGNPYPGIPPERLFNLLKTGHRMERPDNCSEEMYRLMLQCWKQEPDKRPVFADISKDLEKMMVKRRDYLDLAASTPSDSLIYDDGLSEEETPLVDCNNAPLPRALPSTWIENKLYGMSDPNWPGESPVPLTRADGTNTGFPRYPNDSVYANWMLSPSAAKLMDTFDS
UniProt P07949, whole entry M918T, looked up: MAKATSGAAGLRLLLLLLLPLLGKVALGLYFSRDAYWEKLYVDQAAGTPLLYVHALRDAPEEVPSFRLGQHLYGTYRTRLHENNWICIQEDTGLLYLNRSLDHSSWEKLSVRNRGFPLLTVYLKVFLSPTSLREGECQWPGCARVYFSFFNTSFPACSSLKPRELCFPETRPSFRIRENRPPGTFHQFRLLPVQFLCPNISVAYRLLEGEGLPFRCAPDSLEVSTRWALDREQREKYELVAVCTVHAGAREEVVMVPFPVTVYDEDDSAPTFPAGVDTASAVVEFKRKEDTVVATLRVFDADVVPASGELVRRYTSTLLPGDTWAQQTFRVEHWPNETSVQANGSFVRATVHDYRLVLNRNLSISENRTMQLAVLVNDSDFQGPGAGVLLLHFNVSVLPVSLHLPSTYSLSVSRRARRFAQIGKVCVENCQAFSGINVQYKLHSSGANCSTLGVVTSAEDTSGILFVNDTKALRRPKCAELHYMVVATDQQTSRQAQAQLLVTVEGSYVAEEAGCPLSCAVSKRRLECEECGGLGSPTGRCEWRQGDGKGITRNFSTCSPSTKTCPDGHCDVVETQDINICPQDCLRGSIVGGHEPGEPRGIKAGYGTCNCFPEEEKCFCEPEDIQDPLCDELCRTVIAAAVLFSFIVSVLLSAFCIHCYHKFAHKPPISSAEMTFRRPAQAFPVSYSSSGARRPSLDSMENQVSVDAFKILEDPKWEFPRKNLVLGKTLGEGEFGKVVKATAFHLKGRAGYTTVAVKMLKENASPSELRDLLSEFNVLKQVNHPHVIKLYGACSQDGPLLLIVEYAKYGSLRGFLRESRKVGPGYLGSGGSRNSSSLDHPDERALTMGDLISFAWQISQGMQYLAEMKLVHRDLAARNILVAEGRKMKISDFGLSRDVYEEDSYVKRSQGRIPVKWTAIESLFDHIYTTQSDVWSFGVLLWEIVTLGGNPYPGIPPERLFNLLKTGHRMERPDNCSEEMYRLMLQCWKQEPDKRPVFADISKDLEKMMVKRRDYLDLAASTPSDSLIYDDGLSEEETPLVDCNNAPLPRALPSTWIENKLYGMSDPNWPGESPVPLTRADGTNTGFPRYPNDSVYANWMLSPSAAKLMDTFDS
UniProt Q9BRS2: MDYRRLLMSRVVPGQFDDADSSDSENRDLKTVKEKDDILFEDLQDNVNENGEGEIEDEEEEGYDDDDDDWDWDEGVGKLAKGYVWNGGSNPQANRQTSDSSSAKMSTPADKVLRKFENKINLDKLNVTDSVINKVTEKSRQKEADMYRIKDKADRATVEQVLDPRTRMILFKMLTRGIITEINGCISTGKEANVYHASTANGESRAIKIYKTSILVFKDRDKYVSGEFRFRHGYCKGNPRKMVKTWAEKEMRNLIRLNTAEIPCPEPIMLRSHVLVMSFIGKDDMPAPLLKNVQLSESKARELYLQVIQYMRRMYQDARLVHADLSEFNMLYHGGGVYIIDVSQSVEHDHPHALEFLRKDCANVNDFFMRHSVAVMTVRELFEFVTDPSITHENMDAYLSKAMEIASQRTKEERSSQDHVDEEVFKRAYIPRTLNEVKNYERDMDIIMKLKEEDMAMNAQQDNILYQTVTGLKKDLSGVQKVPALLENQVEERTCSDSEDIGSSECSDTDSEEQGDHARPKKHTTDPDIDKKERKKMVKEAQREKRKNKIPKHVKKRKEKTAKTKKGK
UniProt Q13546: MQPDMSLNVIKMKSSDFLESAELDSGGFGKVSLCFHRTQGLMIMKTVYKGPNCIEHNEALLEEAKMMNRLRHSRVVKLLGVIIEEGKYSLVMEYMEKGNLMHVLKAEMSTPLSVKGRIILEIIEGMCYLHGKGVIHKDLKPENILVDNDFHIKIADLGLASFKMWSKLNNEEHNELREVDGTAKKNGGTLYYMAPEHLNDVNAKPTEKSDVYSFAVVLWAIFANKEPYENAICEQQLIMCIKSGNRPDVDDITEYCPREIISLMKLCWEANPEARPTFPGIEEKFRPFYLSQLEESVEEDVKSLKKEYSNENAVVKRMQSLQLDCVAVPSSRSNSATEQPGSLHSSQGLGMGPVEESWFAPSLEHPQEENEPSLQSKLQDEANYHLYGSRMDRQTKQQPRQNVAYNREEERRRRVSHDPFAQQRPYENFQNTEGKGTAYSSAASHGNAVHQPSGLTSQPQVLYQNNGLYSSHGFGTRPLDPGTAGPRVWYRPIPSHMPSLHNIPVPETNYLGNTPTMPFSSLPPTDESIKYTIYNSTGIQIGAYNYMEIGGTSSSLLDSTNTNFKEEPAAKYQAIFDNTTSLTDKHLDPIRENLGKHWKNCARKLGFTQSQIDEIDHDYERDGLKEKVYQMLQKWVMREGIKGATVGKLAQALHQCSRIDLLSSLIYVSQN
UniProt Q9NYA1, whole entry: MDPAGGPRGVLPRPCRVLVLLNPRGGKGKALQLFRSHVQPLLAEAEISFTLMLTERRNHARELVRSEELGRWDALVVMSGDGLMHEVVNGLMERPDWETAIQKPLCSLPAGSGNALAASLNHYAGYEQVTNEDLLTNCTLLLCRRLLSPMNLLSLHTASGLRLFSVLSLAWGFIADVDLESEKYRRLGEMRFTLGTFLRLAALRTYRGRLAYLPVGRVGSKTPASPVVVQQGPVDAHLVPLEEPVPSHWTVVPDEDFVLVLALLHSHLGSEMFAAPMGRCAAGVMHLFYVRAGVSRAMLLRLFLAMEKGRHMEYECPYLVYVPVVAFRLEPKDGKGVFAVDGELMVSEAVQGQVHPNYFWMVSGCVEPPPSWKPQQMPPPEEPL

Tests used:
Test in all cases: kinase-Nluc reporter destabilization hit call (1 = scored as downregulated) (binary); higher = compound decreases kinase abundance
Settings in all cases: K562, 2-18 h
[1] = target: PDPK1 (UniProt O15530)
[2] = target: PIK4CA (UniProt P42356)
[3] = target: PIK4CB (UniProt Q9UBF8)
[4] = target: PLK1 (UniProt P53350)
[5] = target: PRKAA1 (UniProt Q13131)
[6] = target: PRKCA (UniProt P17252)
[7] = target: PTK2 (UniProt Q05397)
[8] = target: PTK2B (UniProt Q14289)
[9] = target: RAF1 (UniProt P04049)
[10] = target: RAF1_S257L (clone: RAF1_mut) (UniProt P04049)
[11] = target: RET (UniProt P07949)
[12] = target: RET_M918T (clone: RET_mut) (UniProt P07949)
[13] = target: RIOK1 (UniProt Q9BRS2)
[14] = target: RIPK1 (UniProt Q13546)
[15] = target: RIPK2 (UniProt O43353)
[16] = target: ROR2 (UniProt Q01974)
[17] = target: RPS6KA1 (UniProt Q15418)
[18] = target: SPHK1 (UniProt Q9NYA1)
[19] = target: SRC (UniProt P12931)
[20] = target: STK24 (UniProt Q9Y6E0)

Measured: kinase-Nluc reporter destabilization hit call

COc1ccc(S(=O)(=O)N(CCO)c2ccccc2CN(C)C/C=C/c2ccc(Cl)cc2)cc1 [KN-93 (phosphate)]
inactive: [1]; 2.5 µM 0 | [2]; 2.5 µM 0 | [3]; 2.5 µM 0 | [4]; 2.5 µM 0 | [5]; 2.5 µM 0 | [6]; 2.5 µM 0 | [7]; 2.5 µM 0 | [8]; 2.5 µM 0 | [9]; 2.5 µM 0 | [10]; 2.5 µM 0 | [11]; 2.5 µM 0 | [12]; 2.5 µM 0 | [13]; 2.5 µM 0 | [14]; 2.5 µM 0 | [15]; 2.5 µM 0 | [16]; 2.5 µM 0 | [17]; 2.5 µM 0 | [18]; 2.5 µM 0 | [19]; 2.5 µM 0 | [20]; 2.5 µM 0

Nc1ncnc2c1c(-c1ccc(Oc3ccccc3)cc1)nn2[C@@H]1CCCNC1 [IBT6A (hydrochloride)]
inactive: [1]; 2.5 µM 0 | [2]; 2.5 µM 0 | [3]; 2.5 µM 0 | [4]; 2.5 µM 0 | [5]; 2.5 µM 0 | [6]; 2.5 µM 0 | [7]; 2.5 µM 0 | [8]; 2.5 µM 0 | [9]; 2.5 µM 0 | [10]; 2.5 µM 0 | [11]; 2.5 µM 0 | [12]; 2.5 µM 0 | [13]; 2.5 µM 0 | [14]; 2.5 µM 0 | [15]; 2.5 µM 0 | [16]; 2.5 µM 0 | [17]; 2.5 µM 0 | [18]; 2.5 µM 0 | [19]; 2.5 µM 0 | [20]; 2.5 µM 0

CCS(=O)(=O)N1CCN(c2ccc(Nc3ncc(C(N)=O)c(NC4CC4)n3)cc2)CC1 [Cerdulatinib]
inactive: [1]; 10 µM 0 | [2]; 10 µM 0 | [3]; 10 µM 0 | [4]; 10 µM 0 | [5]; 10 µM 0 | [6]; 10 µM 0 | [7]; 10 µM 0 | [8]; 10 µM 0 | [9]; 10 µM 0 | [10]; 10 µM 0 | [11]; 10 µM 0 | [12]; 10 µM 0 | [13]; 10 µM 0 | [14]; 10 µM 0 | [15]; 10 µM 0 | [16]; 10 µM 0 | [17]; 10 µM 0 | [18]; 10 µM 0 | [19]; 10 µM 0 | [20]; 10 µM 0

CN1CCCN(C(=O)c2cccc(-c3ccc(/C=C4/C(=O)Nc5ccc(Cl)cc54)o3)c2)CC1 [CX-6258 (hydrochloride)]
inactive: [1]; 2.5 µM 0 | [2]; 2.5 µM 0 | [3]; 2.5 µM 0 | [4]; 2.5 µM 0 | [5]; 2.5 µM 0 | [6]; 2.5 µM 0 | [7]; 2.5 µM 0 | [8]; 2.5 µM 0 | [9]; 2.5 µM 0 | [10]; 2.5 µM 0 | [11]; 2.5 µM 0 | [12]; 2.5 µM 0 | [13]; 2.5 µM 0 | [14]; 2.5 µM 0 | [15]; 2.5 µM 0 | [16]; 2.5 µM 0 | [17]; 2.5 µM 0 | [18]; 2.5 µM 0 | [19]; 2.5 µM 0 | [20]; 2.5 µM 0

COC(=O)[C@H](CC(C)C)NC(=O)c1ccc(NC[C@@H](N)CS)cc1-c1cccc2ccccc12
inactive: [1]; 10 µM 0 | [2]; 10 µM 0 | [3]; 10 µM 0 | [4]; 10 µM 0 | [5]; 10 µM 0 | [6]; 10 µM 0 | [7]; 10 µM 0 | [8]; 10 µM 0 | [9]; 10 µM 0 | [10]; 10 µM 0 | [11]; 10 µM 0 | [12]; 10 µM 0 | [13]; 10 µM 0 | [14]; 10 µM 0 | [15]; 10 µM 0 | [16]; 10 µM 0 | [17]; 10 µM 0 | [18]; 10 µM 0 | [19]; 10 µM 0 | [20]; 10 µM 0

O=C(c1nn(-c2ccc(CN3CCOCC3)cc2)c2c1CS(=O)(=O)c1c(F)cccc1-2)N1CCOCC1
inactive: [1]; 10 µM 0 | [2]; 10 µM 0 | [3]; 10 µM 0 | [4]; 10 µM 0 | [5]; 10 µM 0 | [6]; 10 µM 0 | [7]; 10 µM 0 | [8]; 10 µM 0 | [9]; 10 µM 0 | [10]; 10 µM 0 | [11]; 10 µM 0 | [12]; 10 µM 0 | [13]; 10 µM 0 | [14]; 10 µM 0 | [15]; 10 µM 0 | [16]; 10 µM 0 | [17]; 10 µM 0 | [18]; 10 µM 0 | [19]; 10 µM 0 | [20]; 10 µM 0

C=CC(=O)Nc1cc2c(Nc3ccc(F)c(Cl)c3)ncnc2cc1C#CC(C)(C)N1CCN(C)CC1
inactive: [1]; 2.5 µM 0 | [2]; 2.5 µM 0 | [3]; 2.5 µM 0 | [4]; 2.5 µM 0 | [5]; 2.5 µM 0 | [6]; 2.5 µM 0 | [7]; 2.5 µM 0 | [8]; 2.5 µM 0 | [9]; 2.5 µM 0 | [10]; 2.5 µM 0 | [11]; 2.5 µM 0 | [12]; 2.5 µM 0 | [13]; 2.5 µM 0 | [14]; 2.5 µM 0 | [15]; 2.5 µM 0 | [16]; 2.5 µM 0 | [17]; 2.5 µM 0 | [18]; 2.5 µM 0 | [19]; 2.5 µM 0 | [20]; 2.5 µM 0

C[C@H](CCC(=O)NCCS(=O)(=O)O)[C@H]1CC[C@H]2[C@@H]3[C@@H](O)C[C@@H]4C[C@H](O)CC[C@]4(C)[C@H]3CC[C@]12C [Tauroursodeoxycholate (sodium)]
inactive: [1]; 10 µM 0 | [2]; 10 µM 0 | [3]; 10 µM 0 | [4]; 10 µM 0 | [5]; 10 µM 0 | [6]; 10 µM 0 | [7]; 10 µM 0 | [8]; 10 µM 0 | [9]; 10 µM 0 | [10]; 10 µM 0 | [11]; 10 µM 0 | [12]; 10 µM 0 | [13]; 10 µM 0 | [14]; 10 µM 0 | [15]; 10 µM 0 | [16]; 10 µM 0 | [17]; 10 µM 0 | [18]; 10 µM 0 | [19]; 10 µM 0 | [20]; 10 µM 0

OCCn1cc(-c2cnc3nnn(Cc4ccc5ncccc5c4)c3n2)cn1
inactive: [1]; 10 µM 0 | [2]; 10 µM 0 | [3]; 10 µM 0 | [4]; 10 µM 0 | [5]; 10 µM 0 | [6]; 10 µM 0 | [7]; 10 µM 0 | [8]; 10 µM 0 | [9]; 10 µM 0 | [10]; 10 µM 0 | [11]; 10 µM 0 | [12]; 10 µM 0 | [13]; 10 µM 0 | [14]; 10 µM 0 | [15]; 10 µM 0 | [16]; 10 µM 0 | [17]; 10 µM 0 | [18]; 10 µM 0 | [19]; 10 µM 0 | [20]; 10 µM 0
